Some of the results follow. Repeats are few or missing, and single values can be far off.
Each molecule was assayed on Plasmodium berghei sporozoites (assay: residual sporozoite gliding motility relative to DMSO control; higher = less inhibition of motility). Conditions: 10 µM; incubation time 30 min.

Residual sporozoite gliding motility, > 50%:
O=C(NCC(c1ccsc1)N1CCCCCC1)c1ccc(C(F)(F)F)cc1 (stereo unspecified)
COc1ccc(-c2cc3c(SCC(=O)Nc4cc(C(F)(F)F)ccc4Cl)nccn3n2)cc1
Cc1[nH]c(-c2ccc(F)cc2)cc1C(=O)NC1CCN(Cc2ccccc2)CC1
O=C(Nc1ccc(-c2nc3cc(NC(=O)c4ccc(Cl)cc4)ccc3[nH]2)cc1)c1ccc(Cl)cc1
Cc1cc(Nc2ccc(OCc3ccccc3)cc2)nc2cc(O)ccc12
CC(C)(C)c1ccc(C(=O)Nc2nc3ccccc3s2)cc1
O=c1c2c([nH]c3ccccc13)CCCC2
COc1ccc2c(c1OC)C(=O)N1c3ccccc3N=C(c3ccc(C)cc3)CC21 (stereo unspecified)
Nc1ccn([C@@H]2O[C@H](CO)[C@@H](O)[C@H]2O)c(=O)n1
CCOC(=O)c1c[nH]c2c(CC)cccc2c1=O
CCOC(=O)c1cnc2c(C)cc(C)cc2c1Nc1ccc(OC)c(OC)c1
CN1C=C(c2ccc3ccccc3n2)C(c2c[nH]c3ccccc23)c2ccccc21 (stereo unspecified)
COc1ccc(CNC2CCN(c3ccc(NC(=O)c4cccc(Cl)c4)cc3)CC2)cc1OC
Cc1ccc(N2C3c4ccccc4N(S(=O)(=O)c4ccc(C)cc4)C2c2ccccc2N3S(=O)(=O)c2ccc(C)cc2)cc1
CCc1c(C)c(=N)c2ccccc2n1C
CCN(CC)CCNc1ncnc2c1[nH]c1ccc(Br)cc12
Cc1ccccc1OCCSc1nc2ccc(NC(=O)c3cccs3)cc2s1
COc1ccc2nc(C)cc(Nc3cccc(O)c3)c2c1
CCOc1ccc(C2N(C)c3ccccc3N2C)cc1
CCOC(=O)C1=CN(C)C=C(C(=O)OCC)C1c1cc(Br)c(OCC)c(OC)c1
c1ccc(-c2ccc(-c3nc4ccccc4[nH]3)cc2)cc1
Clc1ccc2[nH]c3c(NCCCN4CCOCC4)ncnc3c2c1
CC(=O)c1sc(NC(=O)Nc2ccc(C)cc2C)nc1C
O=C(NC1CCN(Cc2ccccc2)CC1)c1cc(-c2cccnc2)nc2ccc(Cl)cc12
CC(Oc1ccc(NC(=O)c2cccs2)cc1)C(=O)c1ccc(Cl)cc1 (stereo unspecified)
CCOC(=O)c1cnc2ccc(OC)cc2c1NCc1ccccc1
O=C(NC1CCN(Cc2ccccc2)CC1)c1cc(C(=O)NC2CCN(Cc3ccccc3)CC2)cc(C(=O)NC2CCN(Cc3ccccc3)CC2)c1
O=C(Nc1ccc(-c2nc3ccccc3[nH]2)cc1)c1ccc(Cl)c(Cl)c1
CC(C)(C)c1ccc2c(c1)CN(Cc1ccc(Cl)cc1)CO2
CC(C)=CCN1CCC(C(=O)Nc2ccc(-c3nc4ccccc4[nH]3)cc2)CC1
COc1cccc(NC(=O)Cn2c(C)c(C#N)c3ccccc32)c1
CCCc1c(C)nc2ccccc2c1O
COc1ccc2nc(C)cc(Nc3ccc(Cl)cc3)c2c1
CCOC(=O)C1(Cc2ccccc2)CCN(Cc2cccc(OC)c2O)CC1
COc1ccc(C(=O)NC(c2ccc(Cl)cc2Cl)c2cc(Cl)c3cccnc3c2O)cc1 (stereo unspecified)
CC(=O)c1ccc(NC(=O)CSc2nc(-c3ccccc3Cl)ns2)cc1

Part of the list above in order of length of the SMILES, smallest number first.
Residual sporozoite gliding motility, > 50%:
O=c1c2c([nH]c3ccccc13)CCCC2
CCOc1ccc(C2N(C)c3ccccc3N2C)cc1
CCOC(=O)c1c[nH]c2c(CC)cccc2c1=O
COc1ccc2nc(C)cc(Nc3cccc(O)c3)c2c1
CCN(CC)CCNc1ncnc2c1[nH]c1ccc(Br)cc12
Cc1cc(Nc2ccc(OCc3ccccc3)cc2)nc2cc(O)ccc12
CCOC(=O)c1cnc2c(C)cc(C)cc2c1Nc1ccc(OC)c(OC)c1
COc1ccc(-c2cc3c(SCC(=O)Nc4cc(C(F)(F)F)ccc4Cl)nccn3n2)cc1

Reference: the supplement of paper PMC6119338
